Results taken from patent US20180036256A1.
Results are given in words; binding and its absence hold for the method and conditions named. Some results given as binding are weak or reduced against the parent protein; the word gives no strength.

Chains of the proteins cited; added tags and fusions are not shown. Lines headed by an entry give the natural chain unless they say otherwise; changes in a name come on top. A line that says so, or that is headed by a name, gives the form on record, which may keep a tag or linker.
CHD1 D425A (O14646, form named): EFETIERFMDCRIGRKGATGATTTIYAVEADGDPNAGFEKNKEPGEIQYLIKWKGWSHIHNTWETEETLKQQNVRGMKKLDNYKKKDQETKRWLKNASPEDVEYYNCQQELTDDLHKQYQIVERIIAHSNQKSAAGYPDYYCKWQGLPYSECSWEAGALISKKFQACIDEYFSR

Molecular target: CHD1 D425A (UniProt O14646)
Assay: isothermal titration calorimetry implied (data not shown)

## H3K4me3 peptide (from UniProt P68431 2-22)
  binding: binds
